Taken from: PubChem BioAssay AID1224828 (NIAID, 2016)

- Aim: 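Regulators linking TLR4 signalling to p65 nuclear translocation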 (primary screen)
- Cell system: mouse RAW264.7 G9 macrophage reporter cells (GFP-p65, Tnf promoter-mCherry)
- Reagents: siRNA pool against mouse genes, 100 nM
- Timing: 2 days siRNA transfection, then 40 min LPS before fixation
- Conditions: LPS (Salmonella minnesota R595) at 10 ng/ml
- Measurement: 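Imaged p65 nuclear translocation ratio, normalised to the plate median, converted to robust z-scores and averaged across two replicates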
- Direction: p65 translocation robust z-score: higher = more nuclear NF-kappaB p65 after LPS than the plate median; nuclear/cytoplasmic p65 ratio: higher = more nuclear NF-kappaB p65
- Hit rule: 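Called active when z exceeds 3.3 or falls under -1.56 (median of Tlr4 controls), giving activity score of at least 50; no calls for control wells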
- Calls: active = hit (p65 shift raised or lowered); inactive = no clear change
Here is a random part of about 17,000 reagents. Over the whole deposit, 762 (4.5%) were called active. 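Active calls include both raised and lowered p65 entry, mostly lowered; wells with fewer than 50 cells lack a z-score.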 Raw values are not corrected between plates. No sequences are given here.

target | PubChem SID | p65 translocation robust z-score | nuclear/cytoplasmic p65 ratio, rep 1 | nuclear/cytoplasmic p65 ratio, rep 2 | low cell count flag | Outcome
Skint10 | SID315478798 | -0.17 | 1.4 | 1.53 | enough cells to score | inactive
Cav1 | SID315465784 | 0.1 | 2.23 | 1.39 | enough cells to score | inactive
Adam3 | SID315465292 | 0.64 | 1.71 | 1.77 | enough cells to score | inactive
A430090L17Rik | SID315481170 | 1.31 | 1.46 | 1.81 | enough cells to score | inactive
Ilf3 | SID315467467 | -0.4 | 1.4 | 1.35 | enough cells to score | inactive
Dlst | SID315475652 | 1.25 | 1.7 | 1.5 | enough cells to score | inactive
Or6n1 | SID315480367 | 1.35 | 1.63 | 1.43 | enough cells to score | inactive
Prrc2a | SID315471104 | 0.5 | 1.65 | 1.93 | enough cells to score | inactive
Raver1 | SID315474313 | -0.97 | 1.42 | 1.3 | enough cells to score | inactive
Mmp12 | SID315467940 | -0.73 | 1.31 | 1.28 | enough cells to score | inactive
Bmp5 | SID315465651 | 0.41 | 1.66 | 1.69 | enough cells to score | inactive
AI504432 | SID315478730 | 1.4 | 1.78 | 1.94 | enough cells to score | inactive
Hsd17b12 | SID315471469 | -0.85 | 1.34 | 1.25 | enough cells to score | inactive
Zscan2 | SID315470110 | – | 1.15 | 1.07 | fewer than 50 cells per well; well left out of scoring | inactive
Gm4884 | SID315479062 | – | 1.36 | 1.54 | fewer than 50 cells per well; well left out of scoring | inactive
Naip5 | SID315468096 | 1.22 | 1.72 | 1.87 | enough cells to score | inactive
Prl8a8 | SID315474894 | 0.82 | 1.46 | 1.33 | enough cells to score | inactive
Or4c12 | SID315480027 | 1.91 | 1.79 | 1.76 | enough cells to score | inactive
Stk16 | SID315469502 | -0.7 | 1.44 | 1.29 | enough cells to score | inactive
Ddx28 | SID315474408 | -2.11 | 1.17 | 1.27 | enough cells to score | active
Gzmd | SID315467092 | -0.79 | 1.57 | 1.44 | enough cells to score | inactive
Matn4 | SID315467841 | -0.92 | 1.51 | 1.47 | enough cells to score | inactive
Malt1 | SID315479500 | 0.48 | 1.71 | 1.44 | enough cells to score | inactive
Ubl4b | SID315473115 | – | 1.42 | 1.37 | fewer than 50 cells per well; well left out of scoring | inactive
Sytl5 | SID315479304 | -0.41 | 1.26 | 1.19 | enough cells to score | inactive
Arhgef9 | SID315479317 | -0.33 | 1.58 | 1.55 | enough cells to score | inactive
Tnfsf11 | SID315469772 | -0.8 | 1.37 | 1.44 | enough cells to score | inactive
Gypa | SID315467086 | 0.85 | 1.77 | 1.67 | enough cells to score | inactive
Anapc13 | SID315473697 | -0.97 | 1.46 | 1.53 | enough cells to score | inactive
Bmp6 | SID315465652 | 0.07 | 1.68 | 1.57 | enough cells to score | inactive
Cdk5r2 | SID315465910 | -1.69 | 1.43 | 1.17 | enough cells to score | active
Uqcr10 | SID315472248 | -0.37 | 1.48 | 1.41 | enough cells to score | inactive
Polr3f | SID315474042 | 0.45 | 1.2 | 1.31 | enough cells to score | inactive
Rassf9 | SID315479350 | 1.03 | 1.62 | 1.32 | enough cells to score | inactive
Bmerb1 | SID315472928 | – | 1.31 | 1.19 | fewer than 50 cells per well; well left out of scoring | inactive
Ddah2 | SID315470905 | -1.77 | 1.29 | 1.32 | enough cells to score | active
Insrr | SID315470231 | 1.32 | 1.84 | 1.59 | enough cells to score | inactive
Or52w1 | SID315480040 | 0.71 | 1.4 | 1.35 | enough cells to score | inactive
Slc35f2 | SID315474424 | -1 | 1.3 | 1.14 | enough cells to score | inactive
Rab32 | SID315473254 | -0.32 | 1.47 | 1.47 | enough cells to score | inactive
Zbtb37 | SID315479530 | 0.18 | 1.49 | 1.6 | enough cells to score | inactive
Plaat1 | SID315470568 | 0.73 | 1.58 | 1.42 | enough cells to score | inactive
Atp13a4 | SID315478318 | 2.5 | 1.6 | 1.9 | enough cells to score | inactive

Copied from the list.
Under “low cell count flag”, Insrr [SID315470231] is entered as enough cells to score
For “Outcome”, Skint10 [SID315478798] shows inactive
Result for Zscan2 [SID315470110] under “nuclear/cytoplasmic p65 ratio, rep 1”: 1.15
For “p65 translocation robust z-score”, Gzmd [SID315467092] reads -0.79
Value of Rassf9 [SID315479350] under “p65 translocation robust z-score”: 1.03
Result for Gm4884 [SID315479062] in “nuclear/cytoplasmic p65 ratio, rep 1”: 1.36

More entries follow.
target | PubChem SID | p65 translocation robust z-score | nuclear/cytoplasmic p65 ratio, rep 1 | nuclear/cytoplasmic p65 ratio, rep 2 | low cell count flag | Outcome
Psmb3 | SID315470420 | – | 1.15 | 1.21 | fewer than 50 cells per well; well left out of scoring | inactive
Ly75 | SID315467785 | – | 1.48 | 1.35 | fewer than 50 cells per well; well left out of scoring | inactive
Plag1 | SID315471649 | -1.23 | 1.43 | 1.16 | enough cells to score | inactive
Cep57l1 | SID315476369 | – | 1.92 | 1.61 | fewer than 50 cells per well; well left out of scoring | inactive
Raver2 | SID315479625 | – | 1.31 | 1.23 | fewer than 50 cells per well; well left out of scoring | inactive
Ighmbp2 | SID315469331 | -1.07 | 1.19 | 1.25 | enough cells to score | inactive
Ulk4 | SID315477571 | -1.14 | 1.27 | 1.33 | enough cells to score | inactive
Gm5089 | SID315481484 | 0.43 | 1.43 | 1.67 | enough cells to score | inactive
Asgr1 | SID315465525 | 0.02 | 1.67 | 1.57 | enough cells to score | inactive
Pdia2 | SID315473750 | 0.4 | 1.52 | 1.44 | enough cells to score | inactive
Chp1 | SID315471507 | 0.93 | 1.58 | 1.66 | enough cells to score | inactive
Arf6 | SID315465497 | 0.5 | 1.72 | 1.67 | enough cells to score | inactive
Plch1 | SID315480856 | 1.45 | 1.91 | 1.79 | enough cells to score | inactive
Odf1 | SID315468287 | 2.9 | 2.15 | 1.96 | enough cells to score | inactive
Lrrc4 | SID315477403 | -1.29 | 1.61 | 1.28 | enough cells to score | inactive
Hes6 | SID315471304 | -0.73 | 1.3 | 1.32 | enough cells to score | inactive
Xrcc4 | SID315476701 | -0.16 | 1.49 | 1.48 | enough cells to score | inactive
Arv1 | SID315473655 | 2.43 | 1.73 | 1.73 | enough cells to score | inactive
Ror1 | SID315470441 | -0.25 | 1.65 | 1.35 | enough cells to score | inactive
Ppp2r5b | SID315478439 | 0.9 | 1.64 | 1.5 | enough cells to score | inactive
Zfhx4 | SID315475744 | – | 1.56 | 1.29 | fewer than 50 cells per well; well left out of scoring | inactive
Fnbp1l | SID315477862 | 0.82 | 1.48 | 1.6 | enough cells to score | inactive
Phactr4 | SID315476211 | -1.34 | 1.27 | 1.08 | enough cells to score | inactive
Insm2 | SID315471701 | -0.35 | 1.46 | 1.31 | enough cells to score | inactive
Zfp386 | SID315471410 | 2.08 | 1.69 | 1.48 | enough cells to score | inactive
Rab3gap1 | SID315478494 | – | 1.44 | 1.3 | fewer than 50 cells per well; well left out of scoring | inactive
Rcan3 | SID315471133 | – | 1.39 | 1.36 | fewer than 50 cells per well; well left out of scoring | inactive
Zfp110 | SID315472137 | 1.43 | 1.1 | 1.41 | enough cells to score | inactive
Pclaf | SID315473370 | – | 1.77 | 1.17 | fewer than 50 cells per well; well left out of scoring | inactive
Esx1 | SID315466567 | -0.75 | 1.46 | 1.31 | enough cells to score | inactive
Cdk13 | SID315473831 | -0.01 | 1.66 | 1.4 | enough cells to score | inactive
C1d | SID315471757 | 0.48 | 1.46 | 1.63 | enough cells to score | inactive
